Test results published in article PMC11233569.
Results are given in words; binding and its absence hold for the method and conditions named. Binding seen in cells or lysates may run through a third protein. Here binding means that the protein was enriched with, or labelled near, the bait; the list need not be complete.

Chains of the proteins cited; added tags and fusions are not shown.
UniProt Q15629: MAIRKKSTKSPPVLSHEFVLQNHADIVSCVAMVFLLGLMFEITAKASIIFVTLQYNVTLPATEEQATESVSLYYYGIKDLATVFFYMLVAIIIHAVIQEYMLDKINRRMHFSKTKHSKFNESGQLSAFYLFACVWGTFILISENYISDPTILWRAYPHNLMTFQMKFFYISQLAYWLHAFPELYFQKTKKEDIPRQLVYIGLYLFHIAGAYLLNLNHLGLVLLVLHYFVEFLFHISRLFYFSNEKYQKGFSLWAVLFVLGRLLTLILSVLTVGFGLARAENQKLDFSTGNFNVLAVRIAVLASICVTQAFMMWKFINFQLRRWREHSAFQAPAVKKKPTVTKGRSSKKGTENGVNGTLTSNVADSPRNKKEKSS

Molecular target: T1, endogenous TREX1 (three-prime repair exonuclease 1) (human (endogenous in NP cells)) (UniProt Q9NSU2)
T1 sequence: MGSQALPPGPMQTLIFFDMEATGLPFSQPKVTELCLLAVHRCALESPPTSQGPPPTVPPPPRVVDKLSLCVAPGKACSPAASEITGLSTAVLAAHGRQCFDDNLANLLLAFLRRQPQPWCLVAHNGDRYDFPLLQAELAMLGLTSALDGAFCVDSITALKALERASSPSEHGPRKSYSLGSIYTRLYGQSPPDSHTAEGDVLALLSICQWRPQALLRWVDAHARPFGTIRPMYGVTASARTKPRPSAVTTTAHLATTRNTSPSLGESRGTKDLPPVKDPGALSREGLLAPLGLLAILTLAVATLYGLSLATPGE
Experiment: affinity purification with mass spectrometry; IP of endogenous TREX1 with an anti-TREX1 antibody or control antibody from lysates of normal (passage 2) and senescent (passage 8) human NP cells, NP-40 lysis; eluate separated by SDS-PAGE, trypsin digest, LC-MS (Orbitrap Fusion Lumos)

binding: binds
Substance: endogenous translocating chain-associating membrane protein 1 (TRAM1) (from UniProt Q15629 1-374)
